Literature values in patent publication US8329179B2, “Death domain containing receptor 4 antibodies and methods” (Human Genome Sciences, Inc., priority 1997, dated 2012).
At least one structure is not confirmed: it was looked up by name or label, or the drawing left a doubt.

Test system: microvascular endothelial cells
Settings: in vitro study, Laurence et al., Blood 87:3245 (1996); cited from earlier work

O=C(O)C1=CC(=C(c2ccc(O)c(C(=O)O)c2)c2ccc(O)c(C(=O)O)c2)C=CC1=O [aurintricarboxylic acid]
Reduction of TTP plasma-mediated apoptosis of microvascular endothelial cells: some reduction
